Data on 29 compounds can be found in PubChem BioAssay AID192 (DTP/NCI, 2004).

For this assay, the system named is BDF1 mice, B16 melanoma ip, median survival T/C. Briefly: NCI In Vivo Anticancer Drug Screen. Data for tumor model B16 Melanoma (intraperitoneal) in B6D2F1 (BDF1) mice. The note with it: T/C endpoint: median survival time, higher T/C = longer survival. In a few lines: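 Tumor-bearing mice received test compound or vehicle. Survival or tumor size was then measured in both groups. The treated-group figure was divided by the control-group figure.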

Setting [1] is: dose: 6.25 mg/kg/injection, schedule: Q01DX009 (ip), vehicle: saline.
Setting [2] is: dose: 12.5 mg/kg/injection, schedule: Q01DX009 (ip), vehicle: saline.
The mark [3] stands for this setting: dose: 100.0 mg/kg/injection, schedule: Q01DX009 (ip), vehicle: Klucel (hydroxypropylcellulose) (HPC).
The mark [4] stands for this setting: dose: 50.0 mg/kg/injection, schedule: Q01DX009 (ip), vehicle: saline.
Setting [5] is: dose: 100.0 mg/kg/injection, schedule: Q01DX009 (ip), vehicle: saline.
Setting [6] is: dose: 400.0 mg/kg/injection, schedule: Q01DX009 (ip), vehicle: Klucel (hydroxypropylcellulose) (HPC).
Setting [7] is: dose: 200.0 mg/kg/injection, schedule: Q01DX009 (ip), vehicle: saline with Tween-80.
Setting [8] is: dose: 400.0 mg/kg/injection, schedule: Q01DX009 (ip), vehicle: saline with Tween-80.
The mark [9] stands for this setting: dose: 50.0 mg/kg/injection, schedule: Q01DX009 (ip), vehicle: Klucel (hydroxypropylcellulose) (HPC).
The mark [10] stands for this setting: dose: 200.0 mg/kg/injection, schedule: Q01DX009 (ip), vehicle: Klucel (hydroxypropylcellulose) (HPC).
Setting [11] is: dose: 5.0 mg/kg/injection, schedule: Q01DX009 (ip), vehicle: saline.
The mark [12] stands for this setting: dose: 200.0 mg/kg/injection, schedule: Q01DX009 (ip), vehicle: saline.
[13] abbreviates: dose: 400.0 mg/kg/injection, schedule: Q01DX009 (ip), vehicle: saline.

The list shows only some results of the screen, not a fair sample: it is rich in T/C values a quarter to a half above the control, in often repeated tests (any T/C) and in doses without a T/C. Other doses and runs of a compound stand elsewhere. T/C is the treated group as % of the vehicle group. Some entries give survivors of the animals treated and no T/C: the source holds a T/C of zero for them, seemingly a mark for toxic or unscored doses. Some survivor counts are full or nearly so, which does not show that the dose was tolerated: survival well below the control is almost never listed, so the zero probably covers shortened survival too. Counts of survivors are from the toxicity check (mostly the fifth day) where no day follows; animals may have died later. Schedule codes are those of the source, taken here to give the interval after Q, in days (D) or hours (H), and the number of doses after X. Some entries were tested several times; the values are given in rising order. For survival time, this PubChem deposit counts one and a half times the control or more as active, and values a quarter to a half above the control carry no call in these data; other NCI protocols may use other cut-offs. Some T/C values are followed by the survivors on the day toxicity was checked, most often the fifth; where none is given, no animal had died by that day.

On to `CCN(CC)S(=O)(=O)c1ccc(OC)c(N)c1`, for which the survivor count (dose: 200.0 mg/kg/injection, schedule: Q04DX003 (ip), vehicle: saline with Tween-80) is 10 of 10.
On to `CC1=[N+](C)C(C)(C)CC(C)O1` (stereo not given), for which the T/C reads like this: (dose: 3.12 mg/kg/injection, schedule: Q01DX009 (ip), vehicle: saline) 133 % of control; under setting [1], 138 % of control [8 of 10 alive]; under setting [2], 140 % of control.
Consider `CCCCCCCCCCCCCCCC[N+](C)(C)c1nc(Cl)nc(Cl)n1`, for which the survivor count reads like this: (dose: 7.5 mg/kg/injection, schedule: Q01DX009 (ip), vehicle: saline with Tween-80) 6 of 6; (dose: 15.0 mg/kg/injection, schedule: Q01DX009 (ip), vehicle: saline with Tween-80) 6 of 6; (dose: 16.0 mg/kg/injection, schedule: Q01DX009 (ip), vehicle: saline with Tween-80) 6 of 6; (dose: 30.0 mg/kg/injection, schedule: Q01DX009 (ip), vehicle: saline with Tween-80) 4 of 6; (dose: 60.0 mg/kg/injection, schedule: Q01DX009 (ip), vehicle: saline with Tween-80) 1 of 6.
Take `COc1cccc(Cc2ccncc2)c1OC`: the survivor count is recorded as 10 of 10 (dose: 200.0 mg/kg/injection, schedule: Q01DX009 (ip), vehicle: water) and 0 of 10 (dose: 400.0 mg/kg/injection, schedule: Q01DX009 (ip), vehicle: water).
Take `C1CC[N-]CC1.CC(=N\O)/C(C)=N/O.CC(=N\O)/C(C)=N/O.[CH2-]C.[Co+2]`: under setting [3], the survivor count is reported as 1 of 10.
Take `FC1(F)SC2C3CC(C4CCC=C43)C2C1(F)F` (stereo not given): the survivor count (dose: 1.56 mg/kg/injection, schedule: Q01DX009 (ip), vehicle: Klucel (hydroxypropylcellulose) (HPC)) is recorded as 1 of 10.
Take `ClCCN(CCCl)CCCN1c2ccccc2Sc2ccccc21`: the T/C was 128 % of control (dose: 12.5 mg/kg/injection, schedule: Q04DX003 (ip), vehicle: saline with Tween-80) and 125 % of control (dose: 25.0 mg/kg/injection, schedule: Q04DX003 (ip), vehicle: saline with Tween-80). The survivor count (dose: 50.0 mg/kg/injection, schedule: Q04DX003 (ip), vehicle: saline with Tween-80) is 9 of 10.
On to `COC1=NCN=C2SC=C(N)N=C12`, for which the T/C under setting [2] was 135 % of control. For the same compound, the survivor count under setting [4] is listed as 10 of 10 and the survivor count under setting [5] is recorded as 10 of 10.
For the compound `O=C(C(=O)c1cc(Br)ccc1O)c1cc(Br)ccc1O`, the survivor count under setting [6] is listed as 10 of 10.
`Cc1ccc([N+](=O)[O-])cc1NC(=O)Oc1ccc(Cl)cc1`: the survivor count (dose: 200.0 mg/kg/injection, schedule: Q04DX003 (ip), vehicle: carboxymethylcellulose (CMC)) was 10 of 10.
Turning to `CCC(=O)O[C@H]1CC[C@H]2[C@@H]3[C@@H](C)CC4=CC(=O)CC[C@]4(C)[C@H]3CC[C@]12C`, the survivor count was 10 of 10 under setting [7] and 10 of 10 under setting [8].
Consider `O=[N+]([O-])c1cc(Br)cc2c1nc(Cl)c1ccccc12`, for which the survivor count was 5 of 6 under setting [7] and 6 of 6 under setting [8].
On to `C[Se]c1ncnc2c1c(C#N)cn2C1OC(CO)C(O)C1O` (stereo not given), for which the survivor count is recorded as 10 of 10 (dose: 6.25 mg/kg/injection, schedule: Q01DX009 (ip), vehicle: Klucel (hydroxypropylcellulose) (HPC)) and 0 of 10 under setting [9].
In the case of `O=NO.O=N[O-].O=N[O-].[Co+3].[NH2-].[NH2-].[NH2-].[NH2-]`, the survivor count under setting [9] is 10 of 10 and the survivor count under setting [3] is listed as 1 of 10.
With `Cc1c(O)ccc(=O)n1O`, the survivor count (dose: 320.0 mg/kg/injection, schedule: Q01DX009 (ip), vehicle: saline with Tween-80) is 8 of 10 and 10 of 10.
With `COc1ccc2cc1Oc1ccc(cc1)C[C@H]1c3cc(c(OC)cc3CCN1C)Oc1c(OC)c(OC)cc3c1[C@H](C2)N(C)CC3`, the survivor count (dose: 50.0 mg/kg/injection, schedule: Q01DX009 (ip), vehicle: saline with Tween-80) was 6 of 6; the survivor count (dose: 100.0 mg/kg/injection, schedule: Q01DX009 (ip), vehicle: other) is 9 of 10; the survivor count under setting [5] is on record as 2 of 6; the survivor count (dose: 200.0 mg/kg/injection, schedule: Q01DX009 (ip), vehicle: other) is 0 of 10; the survivor count under setting [7] is 6 of 6; the survivor count (dose: 200.0 mg/kg/injection, schedule: Q04DX003 (ip), vehicle: saline) is reported as 1 of 8. Also, the survivor count under setting [8] is given as 6 of 6.
Regarding `C[C@H]1C/C=C/[C@H]2[C@@H]3O[C@]3(C)[C@@H](C)[C@H]3[C@H](Cc4ccccc4)NC(=O)[C@]32OC(=O)O/C=C/[C@@](C)(O)C1=O`, the survivor count (dose: 5.0 mg/kg/injection, schedule: Q01DX009 (ip), vehicle: Klucel (hydroxypropylcellulose) (HPC)) is reported as 10 of 10.
Regarding `CCO/C=C1\SC(=S)N(c2cccc(OC)c2)C1=O`, the T/C under setting [9] was 130 % of control. Moreover, the survivor count was 10 of 10 under setting [10] and 9 of 10 under setting [6].
Turning to `C/C=C(\C)c1cc(=O)c2c(C)cc3c(c2o1)C(=O)c1c(O)c(C2CC(C)(N(C)C)C(OC(C)=O)C(C)O2)cc(C2CC(N(C)C)C(O)C(C)O2)c1C3=O` (stereo not given), the T/C is, setting by setting: (dose: 0.62 mg/kg/injection, schedule: Q01DX009 (ip), vehicle: saline) 132 % of control; under setting [11], 128 % of control. For the same compound, the survivor count is reported as 10 of 10 (dose: 2.5 mg/kg/injection, schedule: Q01DX009 (ip), vehicle: saline) and 10 of 10 under setting [11].
Turning to `N#CCN1CCCN(CC#N)C1`, the survivor count by setting is: (dose: 150.0 mg/kg/injection, schedule: Q01DX009 (ip), vehicle: Klucel (hydroxypropylcellulose) (HPC)) 6 of 10; (dose: 300.0 mg/kg/injection, schedule: Q01DX009 (ip), vehicle: Klucel (hydroxypropylcellulose) (HPC)) 0 of 10.
With `CCN(CC)C(C)CN1c2ccccc2Sc2ccccc21` (stereo not given), the survivor count runs as follows: under setting [12], 10 of 10; under setting [13], 0 of 10.
In the case of `CCCCCCCCCCCCCCCCCCOCC(COP(=O)([O-])OCC[N+](C)(C)C)OC` (stereo not given), the survivor count under setting [4] is recorded as 10 of 10.
Take `O=c1c2cccc3cccc(c32)c2nc3ccccc3n12`: the survivor count is 9 of 10 (dose: 10.0 mg/kg/injection, schedule: Q01DX009 (ip), vehicle: saline with Tween-80) and 9 of 10 (dose: 20.0 mg/kg/injection, schedule: Q01DX009 (ip), vehicle: saline with Tween-80).
For `CC(=O)c1ccc2c(c1)N(CCCN1CCN(CCO)CC1)c1ccccc1S2`, the survivor count is, setting by setting: under setting [1], 9 of 10; under setting [2], 9 of 10.
Turning to `CCOC(=O)c1c(N)[nH]c(SSc2[nH]c(N)c(C(=O)OCC)c2C(=O)OCC)c1C(=O)OCC`, the survivor count (dose: 150.0 mg/kg/injection, schedule: Q01DX009 (ip), vehicle: saline) was 10 of 10.
`N=C(N)c1ccc(/C=C/c2ccc(C(=N)N)cc2O)cc1`: the survivor count (dose: 100.0 mg/kg/injection, schedule: Q01DX009 (ip), vehicle: water) is given as 0 of 10.
`CCC1CN2C(=N1)c1ccccc1-c1cc(Cl)ccc12` (stereo not given): for the setting “dose: 25.0 mg/kg/injection, schedule: Q01DX009 (ip), vehicle: suspension in saline”, the T/C was 132 % of control. For the same compound, the survivor count is given as 0 of 10 (dose: 80.0 mg/kg/injection, schedule: Q01DX009 (ip), vehicle: saline) and 0 of 10 (dose: 160.0 mg/kg/injection, schedule: Q01DX009 (ip), vehicle: saline).
As to `c1ccc(CC2NCCc3c2[nH]c2ccccc32)cc1` (stereo not given), the survivor count was 7 of 10 (dose: 12.5 mg/kg/injection, schedule: Q01DX009 (ip), vehicle: Klucel (hydroxypropylcellulose) (HPC)); 10 of 10 under setting [3]; 5 of 10 under setting [10].
For the compound `CN(C)CC(CN1c2ccccc2Sc2ccccc21)N(C)C` (stereo not given), the survivor count is, setting by setting: under setting [5], 8 of 10; under setting [12], 0 of 10; under setting [13], 0 of 10.
